Assay results published in PubChem BioAssay AID2417 (National Center for Advancing Translational Sciences (NCATS), 2010).
The campaign covered roughly 140,000 compounds. About 4,300 (3.1%) were called active. The inconclusive results got no clear call from the source; some entries with a clear call stand among them for comparison.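 How the source made its calls: active means readout at or below -70, meaning at least 70% loss of cells showing the perinucleolar compartment, a nuclear body marking cancer cells; inconclusive means readout between -30 and a set limit; inactive means the rest.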

Experiment: High Content Assay for Compounds that inhibit the Assembly of the Perinucleolar Compartment;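 further: plate controls were DMSO wells for no effect and camptothecin positive control wells for full effect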
Settings: PC3M PTB-GFP, PNC prevalence imaging, 16 h; at 10 µM; hits give low values
In short: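 Compounds are pinned in duplicate onto adhered PC3M cells stably expressing GFP-tagged PTB and incubated 16 h at 37 C. Cells are then fixed, nuclei stained with Hoechst, and PNC-positive cells counted.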

| Structure (SMILES) | activity change (PNC), negative = inhibition |
| --- | --- |
| Oc1ccc(-c2cn3c(n2)SCC3)cc1 | inactive: 13.9% |
| CC(=O)Nc1ccc(OC(=O)COc2ccc(Br)cc2)cc1 | inactive: 36.4% |
| CCCOc1cc(CC(=O)NCc2ccco2)ccc1OC | inconclusive: -72.2% |
| COc1ccc(S(=O)(=O)Cc2ccc(C(=O)N3CCCC3)o2)cc1 | inconclusive: -34.2% |
| O=C(c1ccc(Cl)c(S(=O)(=O)N2CCCC2)c1)N1CCN(c2ccccn2)CC1 | inactive: 16.6% |
| CCc1nnc(NC(=O)CSc2nnc3ncccn23)s1 | active: -81.8% |
| COCCNC(=O)c1cc(-c2ccc(OC)c(OC)c2)on1 | inconclusive: -46.4% |
| CCOC(=O)Nc1cccc(C(=O)O)c1 | active: -104% |
| CC(=O)Nc1sc(N/N=C\c2ccccc2)nc1-c1cccs1 | inactive: -20.5% |
| CCC(=O)N1CCc2cc(S(=O)(=O)NC(C(=O)NCc3ccc(F)cc3)C(C)C)ccc21 (centres undefined) | inconclusive: -44.5% |
| N#Cc1cc2cc3c(cc2nc1SCC(=O)OC1CCCCC1)OCO3 | inconclusive: -33% |
| CC(C)(/C=N/O)/[N+]([O-])=C/C=[N+](\[O-])C(C)(C)/C=N/O | inactive: -13.4% |
| Cc1ccc(-c2cnc(N)n2C)cc1C | inconclusive: -30.9% |
| CN(c1cccc(NC(=O)CN(c2cccc(Cl)c2)S(=O)(=O)c2ccccc2)c1)S(C)(=O)=O | inactive: 50.5% |
| COc1ccc(Cc2nnc(NC(=O)C3CCCO3)s2)cc1 (centres undefined) | active: -123% |
| Nc1ccccc1-c1nc2ccccc2[nH]1 | active: -83.4% |
| CC(=O)Nc1cc(ON=C(C)C)cc([N+](=O)[O-])c1 | inactive: 37.7% |
| Cc1nn(-c2ccc(F)cc2)c2c1cc(C#N)c1nc3ccccc3n12 | inconclusive: -51% |
| Cc1cccc(N2C(=O)CC(N3CCN(Cc4ccc5c(c4)OCO5)CC3)C2=O)c1 (centres undefined) | inconclusive: -36.8% |
| Cc1cc(-n2c(C)cc(C(=S)N3CCOCC3)c2C)ccc1Br | inactive: -16.7% |
| O=C(NCC1CCCO1)c1sc2ccccc2c1Cl (centres undefined) | inactive: 34.3% |
| Cn1nnnc1SCC(=O)N1c2ccccc2CCc2ccccc21 | inconclusive: -51.6% |
| COc1ccc(-c2cc(C(=O)O)c3ccccc3n2)c(OC)c1 | inactive: 31.7% |
| CCc1c(C)c(C#N)c2nc3ccccc3n2c1-n1nc(C)cc1C | inconclusive: -79.8% |

| Structure (SMILES) | activity change (PNC), negative = inhibition |
| --- | --- |
| O=C(Nc1nc2ccccc2[nH]1)c1ccccc1F | inactive: 12.2% |
| CCCn1c(SCC(=O)Nc2nnc(C(C)C)s2)nc2c1c(=O)n(C)c(=O)n2C | inactive: -6.73% |
| CCCCOC(=O)Nc1cc(C(=O)OC)ccc1C(=O)OC | inconclusive: -37.9% |
| Cc1csc(NC(=O)c2ccc(S(=O)(=O)N(C)c3ccccc3)cc2)n1 | inconclusive: -34.7% |
| O=C(COc1cccc(NC(=O)c2cccc([N+](=O)[O-])c2)c1)c1ccc(Br)cc1 | inactive: -28.6% |
| O=c1cc(-c2ccccc2)nc(SCc2ccc(F)cc2)[nH]1 | inconclusive: -39.2% |
| CCc1[nH]nc2c1C(c1cccc(OC(=O)N3CCOCC3)c1)C(C#N)=C(N)O2 (centres undefined) | inconclusive: -48.1% |
| COc1ccc(Nc2nc(CN3CCOCC3)nc3sc4c(c23)CCC(C)C4)cc1OC (centres undefined) | inactive: 48.6% |
| CC(C)CCn1cnc2c(cnn2-c2ccc(Cl)cc2)c1=O | inconclusive: -43.9% |
| COc1ccc(N2C(=O)CC(N3CCN(C4CCc5ccccc5C4)CC3)C2=O)cc1 (centres undefined) | active: -121% |
| CCOc1ccc(-n2nnnc2SCC(=O)c2ccccc2)cc1 | inactive: -4.07% |
| COc1ccc(NC(=O)CCCCCN2C(=O)CCC2=O)cc1Cl | inconclusive: -75.1% |
| Cc1nc2ccc(N)cc2s1 | inconclusive: -50.2% |
| Cn1c(SCC(=O)C(C)(C)C)nnc1-c1ccccn1 | inconclusive: -56.8% |
| CCn1c(SCC(=O)c2ccccc2)nnc1-c1cnccn1 | inactive: 36% |
| Cc1ccc(/C=N/c2sc3c(c2C#N)CCC3)o1 | inactive: 75.5% |
| COc1ccc(OC)c(C2CC(=O)c3c([nH]c(C(=O)OCC4CCCO4)c3C)C2)c1 (centres undefined) | inactive: -15.3% |
| CCN(CCNS(=O)(=O)c1ccc2c(c1)oc(=O)n2C)c1ccccc1 | inconclusive: -31.7% |
| CN1C(=O)C(O)(CC(=O)c2ccccn2)c2cc(Br)ccc21 (centres undefined) | inconclusive: -60.2% |
| C/C(=N\Nc1ccc(F)cc1F)c1ccc(F)cc1 | inactive: 74.6% |
| CC(C)[C@H](NC(=O)c1ccco1)C(=O)OCC(=O)N1CCc2ccccc21 | inactive: -17% |
| COc1ccc(N2CCN(C(=O)CCc3nc(-c4ccc(C)cc4)no3)CC2)cc1 | inconclusive: -32.4% |
| O=C(CSc1nc2cc(Cl)ccc2o1)Nc1ccc(N2CCOCC2)cc1 | inconclusive: -32.6% |
| COc1ccc(-c2[nH]nc3c2C(c2ccoc2)C(C#N)=C(N)O3)cc1 (centres undefined) | inconclusive: -41.2% |

| Structure (SMILES) | activity change (PNC), negative = inhibition |
| --- | --- |
| CCOc1cc(CN2CCSCC2)ccc1O | inactive: 18.9% |
| Cc1ccc(-n2[nH]c(C)c(/C=C3/C=Nc4ccccc43)c2=O)cc1C | inconclusive: -31.5% |
| CCN(CC)C(=O)CSCC(=O)Nc1ccccc1 | inconclusive: -44% |
| C/C(=N\NC(=O)C(=O)Nc1cccc(C(F)(F)F)c1)c1ccc(Cl)s1 | inconclusive: -48.6% |
| c1ccc(CSc2nnc(-c3ccncc3)o2)cc1 | inactive: 16.8% |
| CCc1c(C)nc2ncnn2c1Nc1ccc(C(C)=O)cc1 | active: -111% |
| C=C(C)CN=C1NN=C(c2cc(C)n(-c3ccc(C)cc3)c2C)CS1 | inactive: 7.14% |
| Cc1ccc(-n2ncc3c(SCc4cccc(C)c4)ncnc32)cc1 | inconclusive: -38% |
| CCCCN1C(=O)CCC(C(=O)O)C1c1ccc(OC)cc1 (centres undefined) | inactive: 36.8% |
| CCOC(=O)c1ccc(/C=C2/C=C(c3ccccc3)N(c3ccc(Cl)c(C(=O)O)c3)C2=O)cc1 | inactive: 25.8% |
| O=C(N/N=C/c1cccs1)[C@H]1C[C@@H]1c1ccccc1 | inactive: 10.6% |
| COCC(=O)NC1CCN(S(=O)(=O)c2ccc(C(=O)O)cc2)CC1 | active: -122% |
| O=c1cc(CN2CCN(C/C=C/c3ccccc3)CC2)c2cc(O)ccc2o1 | inconclusive: -51.7% |
| COc1cccc(NC(=O)c2cn(C)c(=O)c3cc(OC)c(OC)cc23)c1 | inactive: 68.1% |
| O=C(O)C1CC=CCC1C(=O)Nc1cc(Cl)ccc1Cl (centres undefined) | inconclusive: -40.3% |
| Nn1c(SCC(=O)NC2CCCCC2)nnc1C1CC1 | inconclusive: -70.7% |
| C#CC1(O)CC(C)N(C)C(C)C1 (centres undefined) | active: -90.8% |
| COc1ccc(Oc2ccc(/C=C/C(=O)c3ccc(O)cc3)cc2[N+](=O)[O-])cc1 | active: -113% |
| O=C(CSc1ccc(Cl)cc1)NC1CCCC1 | inactive: 19.2% |
| O=C1S/C(=C\c2ccc(N3CCOCC3)o2)C(=O)N1Cc1c(F)cccc1Cl | inactive: 28.1% |
| CCCCC/C=C\C[C@H](O)/C=C/c1cccc(C[C@H](O)CCCCO)n1 | inconclusive: -37.6% |
| COc1ccccc1NC(=O)c1ccc(NC(=O)c2cc3c(s2)CCC3)cc1 | inconclusive: -59.4% |
| CCOC(=O)c1c(NC(=S)Nc2ccc(Cl)cc2)sc2c1CCN(C)C2 | inactive: 37.7% |
| COc1cccc(-n2nnc3c(=O)n(Cc4ccccc4F)cnc32)c1 | inactive: -27.7% |

6 compounds picked at random from those above, as already listed:

| Structure (SMILES) | activity change (PNC), negative = inhibition |
| --- | --- |
| COc1ccc(Oc2ccc(/C=C/C(=O)c3ccc(O)cc3)cc2[N+](=O)[O-])cc1 | active: -113% |
| CCOC(=O)c1ccc(/C=C2/C=C(c3ccccc3)N(c3ccc(Cl)c(C(=O)O)c3)C2=O)cc1 | inactive: 25.8% |
| Nn1c(SCC(=O)NC2CCCCC2)nnc1C1CC1 | inconclusive: -70.7% |
| O=C(CSc1ccc(Cl)cc1)NC1CCCC1 | inactive: 19.2% |
| CCCCC/C=C\C[C@H](O)/C=C/c1cccc(C[C@H](O)CCCCO)n1 | inconclusive: -37.6% |
| CCc1c(C)nc2ncnn2c1Nc1ccc(C(C)=O)cc1 | active: -111% |

Additional entries follow.

| Structure (SMILES) | activity change (PNC), negative = inhibition |
| --- | --- |
| Cc1nnc(N2CCN(c3ccccc3)CC2)[nH]c1=O | inconclusive: -32.9% |
| CCn1c(COc2ccccc2)nnc1SCc1ccc(C#N)cc1 | inconclusive: -65.4% |
| OC(CNc1ccccc1)COc1ccc(OCC(O)CNc2ccccc2)cc1 (centres undefined) | inconclusive: -49.5% |
| Cc1csc(N/N=C/c2ccc(O)c([N+](=O)[O-])c2)n1 | inconclusive: -44.2% |
| CCOC(=O)c1ccc(NC(=O)c2ccccc2C)cc1 | inactive: 26.8% |
| CC(C)N1CCC2(CC1)N=C(c1ccc3c(c1)OCO3)CC(c1cc(Cl)ccc1O)N2 (centres undefined) | inconclusive: -30.6% |
| COc1cc(/C=N/NC(=O)C(=O)NCc2cccnc2)ccc1O | inconclusive: -50.8% |
| Cc1ccc(NC(=S)NCCSc2ccc(Cl)cc2)c(C)c1 | inconclusive: -33.8% |
| O=C(Nc1ccc(F)cc1)OCCN1CCN(Cc2ccccc2)CCC1=O | inconclusive: -35.6% |
| C/C(=N\NC(=O)c1ccc(Br)cc1)c1ccccc1 | inactive: 75.5% |
| CN(C)S(=O)(=O)c1ccc(N2CCCC2)c(C(=O)Nc2nc3ccc(F)cc3s2)c1 | inconclusive: -30.7% |
| Cc1ccc(C(=O)OCn2ncc(Cl)c(Cl)c2=O)cc1 | inconclusive: -75.1% |
| CCc1ccc(/C=C2\Oc3cc(OS(C)(=O)=O)ccc3C2=O)cc1 | inactive: -2.49% |
| Oc1ccc(CNc2ccccc2O)cc1 | inconclusive: -40.1% |
| CC(NC(=O)c1ccco1)C(c1cccs1)N1CCN(c2ccccc2)CC1 (centres undefined) | inconclusive: -72.5% |
| COc1ccc(C(=O)CCNc2ccc(C)c(Cl)c2)cc1 | inactive: -18.1% |
| CCOC(=O)COc1ccc(/C=C2/SC(=Nc3ccccc3)N(Cc3cccnc3)C2=O)cc1OC | inconclusive: -44.1% |
| CN(CCOc1ccc(-c2ccn(S(=O)(=O)c3cccc4ccccc34)n2)cc1)c1ccccn1 | active: -89.2% |
| CCCn1[nH]cc(SC)c(=O)c1=O | inconclusive: -59.5% |
| O=C(NNc1c2ccccc2nc2ccccc12)c1ccc(O)cc1O | inconclusive: -72.5% |
| O=c1c2c3c(sc2n(CCN2CCCC2)c(=O)n1Cc1ccco1)CCCCC3 | inactive: -6.36% |
| Cc1cc(C(F)F)n2nc(C(=O)Nc3sc4c(c3C(N)=O)CCC4)nc2n1 | inactive: 1.19% |
